Assay results as given in article PMC6970084.
These are yes or no findings as the source states them, for the method shown. Binding seen in cells or lysates may run through a third protein. Some binding calls cover weakened binding; strength is not graded here.

Amino acid sequences for entries named in this document (tags omitted).
UniProt P78362: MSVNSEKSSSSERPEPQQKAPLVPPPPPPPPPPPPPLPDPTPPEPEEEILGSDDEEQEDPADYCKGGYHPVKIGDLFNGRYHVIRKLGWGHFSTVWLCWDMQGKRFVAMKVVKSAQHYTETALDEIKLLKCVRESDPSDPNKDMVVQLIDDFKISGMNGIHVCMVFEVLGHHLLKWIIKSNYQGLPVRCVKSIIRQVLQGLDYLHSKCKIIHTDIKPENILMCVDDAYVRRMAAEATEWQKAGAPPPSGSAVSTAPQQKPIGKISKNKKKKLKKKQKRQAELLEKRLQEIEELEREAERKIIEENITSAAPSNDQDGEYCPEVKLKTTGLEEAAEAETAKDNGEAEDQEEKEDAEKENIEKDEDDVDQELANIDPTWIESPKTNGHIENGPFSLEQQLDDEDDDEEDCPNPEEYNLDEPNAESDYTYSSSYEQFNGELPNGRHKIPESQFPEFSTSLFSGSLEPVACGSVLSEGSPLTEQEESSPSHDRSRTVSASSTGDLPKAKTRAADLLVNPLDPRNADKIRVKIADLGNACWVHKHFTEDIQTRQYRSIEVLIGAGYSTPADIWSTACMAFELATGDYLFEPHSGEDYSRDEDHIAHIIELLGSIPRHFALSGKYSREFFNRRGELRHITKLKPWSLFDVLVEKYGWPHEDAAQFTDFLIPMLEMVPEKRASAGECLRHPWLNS

Legend:
Experiment in all cases: co-IP; endogenous proteins of HCT116 cells, without or with 5-fluorouracil at its IC50; precipitated with SRPK2, Numb or p53 antibody, control IgG as negative control; blotted; procedure as in ref. 15
[1] = molecular target: Serine-arginine protein kinase 2 (human (endogenous in HCT116)) (UniProt P78362)
[2] = molecular target: T1, Numb (human (endogenous in HCT116)) (UniProt P49757)
T1 sequence: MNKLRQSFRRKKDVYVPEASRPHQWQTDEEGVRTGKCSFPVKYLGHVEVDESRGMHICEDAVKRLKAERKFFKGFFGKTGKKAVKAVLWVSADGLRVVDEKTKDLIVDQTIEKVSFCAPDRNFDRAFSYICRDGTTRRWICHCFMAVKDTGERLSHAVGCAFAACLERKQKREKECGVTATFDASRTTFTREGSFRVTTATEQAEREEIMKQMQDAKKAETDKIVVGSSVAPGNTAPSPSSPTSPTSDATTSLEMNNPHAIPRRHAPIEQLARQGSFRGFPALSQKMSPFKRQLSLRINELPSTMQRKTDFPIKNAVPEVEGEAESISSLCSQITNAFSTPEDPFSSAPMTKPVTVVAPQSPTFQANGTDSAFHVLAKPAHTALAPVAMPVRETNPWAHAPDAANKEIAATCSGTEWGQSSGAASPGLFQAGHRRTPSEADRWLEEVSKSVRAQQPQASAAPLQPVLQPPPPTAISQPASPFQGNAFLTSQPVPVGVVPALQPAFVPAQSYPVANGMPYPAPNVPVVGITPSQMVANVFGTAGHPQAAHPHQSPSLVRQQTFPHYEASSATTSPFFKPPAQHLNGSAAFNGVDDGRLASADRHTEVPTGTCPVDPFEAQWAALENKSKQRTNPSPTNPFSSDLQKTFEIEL

[3] = molecular target: wild-type p53 (human (endogenous in HCT116)) (UniProt P04637)

| Substance | binding [1] | binding [2] | binding [3] |
| --- | --- | --- | --- |
| wild-type p53 (from UniProt P04637 1-393) | binds | – | – |
| Serine-arginine protein kinase 2 (from UniProt P78362 1-688) (enzyme) | – | binds | binds |
